In paper PMC6277767, “Broad and Region-Specific Impacts of the Synthetic Cannabinoid CP 55,940 in Adolescent and Adult Female Mouse Brains” (Frontiers in Molecular Neuroscience, 2018):

System: CD1 female mouse brain lipidome
Test: Brain-region lipid levels (HPLC/MS/MS lipidomics) 2 h after single i.p. 3 mg/kg CP 55,940 vs vehicle
Type: in vivo
Method: The Bloomington Institutional Animal Care and Use Committee of Indiana University reviewed and approved the animal procedures. Female mice from the CD1 strain were utilized to match our study examining THC’s effects on the brain lipidome ([Leishman et al., 2018]). Mice were given a single i.p. injection of either 3 mg/kg CP or 1:1:18 cremophor:ethanol:saline vehicle (please refer to the section “3 mg/kg CP Is Relevant for Synthetic Cannabinoid Abuse and Has Stronger Effects on the Female Mouse Brain Lipidome During Adolescence” for a justification of dose and use of female mice). Three different age groups were given injections: PND 35 and PND 50 adolescents, and adult mice (PND 113). At least eight mice in each age group received CP and at least eight received vehicle. Matching the THC study time course ([Leishman et al., 2018]), mice were sacrificed via rapid decapitation 2 h after injection. Brains were immediately removed and flash-frozen in liquid nitrogen, and then stored at -80°C until dissections were performed. Brains were dissected on an ice-cold dissection plate into the following regions: STR, HIPP, CER, THAL, CTX, HYP, MID, and STEM. These abbreviations for these brain areas will be used exclusively when discussing the results generated by these specific dissections. Each dissected area was immediately placed in liquid nitrogen and then stored at -80°C until used for lipid extraction.
Tissue extracts were performed as previously described ([Bradshaw et al., 2006]; [Stuart et al., 2013]; [Raboune et al., 2014]; [Leishman et al., 2016a],[b], [2017], [2018]). First, samples were shock frozen in liquid nitrogen, weighed, and transferred to a centrifuge tube. The mass of the largest sample was multiplied by 50 to determine how many milliliters of HPLC-grade methanol (Fisher, Fair Lawn, NJ, United States) to add. Then, samples were spiked with 500 pmol deuterium-labeled NAGly (d8NAGly; Cayman Chemical, Ann Arbor, MI, United States). Samples were placed on ice in darkness for 2 h then individually homogenized and centrifuged at 19,000 × g for 20 min at 20°C. Supernatants were diluted with HPLC water (purified in house) to make a solution of 75% water, 25% supernatant. Lipids were partially purified on C18 solid phase extraction columns (Agilent, Palo Alto, CA, United States). A series of four elutions with 1.5 mL of 60%, 75%, 85%, and 100% methanol were collected ([Stuart et al., 2013]; [Leishman et al., 2016a],[b], [2018]).
As previously described ([Bradshaw et al., 2006]; [Tan et al., 2006]; [Smoum et al., 2010]; [Stuart et al., 2013]; [Tortoriello et al., 2013]; [Raboune et al., 2014]; [Leishman et al., 2016a],[b], [2017], [2018]), samples were analyzed using an Applied Biosystems API 3000 triple quadrupole mass spectrometer with electrospray ionization (Foster City, CA, United States). Using an Agilent XDB-C18 reversed phase analytical column and optimized mobile phase gradients, 20 μL from each elution were chromatographed. Two Shimadzu 10ADvp pumps (Columbia, MD, United States) provided the pressure for gradient elution. Mobile phase A: 20% methanol, 80% water (v/v) and 1 mM ammonium acetate (Sigma, St. Louis, MO, United States). Mobile phase B: 100% methanol, 1 mM ammonium acetate. Every method run began with 0% mobile phase B, reached 100% mobile phase B flowing at 0.2 mL/min, and gradually returned to 0% mobile phase B.
This screening library will be referred to as the lipidome when discussing data from this study. HPLC/MS/MS data were analyzed using Analyst software (Applied Biosystems) ([Bradshaw et al., 2006]; [Tan et al., 2006]; [Stuart et al., 2013]; [Tortoriello et al., 2013]; [Raboune et al., 2014]; [Leishman et al., 2016a],[b], [2017], [2018]). Chromatograms (Supplementary Figure 3) were generated by determining the retention time of analytes from the analytical column with a [M-1] or [M+1] parent peak and a fragmentation peak corresponding to the programmed values. […]

[1] = adult female mice, brainstem, 3mg/kg CP 55,940
[2] = cortex, PND 35 adolescent female mice, 3 mg/kg CP 55,940
[3] = thalamus, PND 35 adolescent female mice, 3 mg/kg CP 55,940

CCCCCCC(C)(C)c1ccc([C@@H]2C[C@H](O)CC[C@H]2CCCO)c(O)c1 [CP 55,940]
BDL: 11-OH-THC level, Mean [1] | 11-nor-9-carboxyTHC level, Mean [1] | Cannabidiol level, Mean [1] | THC level, Mean [1] | 11-OH-THC level, Mean [2] | 11-nor-9-carboxyTHC level, Mean [2] | Cannabidiol level, Mean [2] | THC level, Mean [2] | 11-OH-THC level, Mean [3] | 11-nor-9-carboxyTHC level, Mean [3] | Cannabidiol level, Mean [3] | THC level, Mean [3]
